Patent US20150218251A1
Results are given in words; binding and its absence hold for the method and conditions named. Some binding calls cover weakened binding; strength is not graded here.

By UniProt entry, the sequences of proteins in these tests, tags left out. Where a name states a change or a piece, a line headed by the entry shows the natural chain unless it says otherwise.
UniProt P06756: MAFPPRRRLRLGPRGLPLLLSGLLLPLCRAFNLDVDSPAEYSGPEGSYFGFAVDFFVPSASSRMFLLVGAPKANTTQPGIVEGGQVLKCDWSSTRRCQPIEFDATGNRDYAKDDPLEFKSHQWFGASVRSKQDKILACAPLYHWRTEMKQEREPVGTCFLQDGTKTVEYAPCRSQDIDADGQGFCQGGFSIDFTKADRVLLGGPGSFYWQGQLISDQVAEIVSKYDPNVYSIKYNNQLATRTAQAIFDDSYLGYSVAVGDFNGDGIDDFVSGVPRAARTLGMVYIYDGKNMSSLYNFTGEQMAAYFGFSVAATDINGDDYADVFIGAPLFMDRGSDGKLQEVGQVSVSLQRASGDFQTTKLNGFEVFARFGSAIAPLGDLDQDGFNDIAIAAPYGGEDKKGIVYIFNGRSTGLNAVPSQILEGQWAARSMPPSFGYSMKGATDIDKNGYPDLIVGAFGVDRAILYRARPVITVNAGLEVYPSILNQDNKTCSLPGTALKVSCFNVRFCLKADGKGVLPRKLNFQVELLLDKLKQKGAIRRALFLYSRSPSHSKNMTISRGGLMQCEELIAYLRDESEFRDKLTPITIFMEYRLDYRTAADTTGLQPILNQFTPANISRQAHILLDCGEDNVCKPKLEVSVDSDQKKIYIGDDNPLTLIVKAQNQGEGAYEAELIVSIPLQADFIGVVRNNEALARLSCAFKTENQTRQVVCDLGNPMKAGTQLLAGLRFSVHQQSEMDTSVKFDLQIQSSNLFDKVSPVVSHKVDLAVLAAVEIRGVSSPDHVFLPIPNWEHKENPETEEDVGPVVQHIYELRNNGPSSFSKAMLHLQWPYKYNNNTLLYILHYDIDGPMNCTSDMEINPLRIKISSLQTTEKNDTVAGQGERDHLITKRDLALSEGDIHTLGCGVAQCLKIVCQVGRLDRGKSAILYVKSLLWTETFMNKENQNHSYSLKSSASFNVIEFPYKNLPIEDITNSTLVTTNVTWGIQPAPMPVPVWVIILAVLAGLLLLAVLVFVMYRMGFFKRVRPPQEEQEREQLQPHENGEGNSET

Target: integrin αvβ3 (UniProt P06756)
Experiment: cell adhesion inhibition assay (Table 4)

B1: Control FNIII 10 mutant (SEQ ID NO: 50, …) (designed binder)
chain: HHHHHHVSDVPRDLEVVAATPTSLLISWDAPAVTVRYYRITYGETGGNSPVQEFTVPGSKSTATISGLKPGVDYTITVYAVTPRGDWNEGSKPISINYRT
B1 was tested, and the binding was “binds”.
